This passage reports binding results from paper PMC10754140.

Sequences of proteins named here, by UniProt entry; tags and fusion partners are left off.
UniProt Q15154: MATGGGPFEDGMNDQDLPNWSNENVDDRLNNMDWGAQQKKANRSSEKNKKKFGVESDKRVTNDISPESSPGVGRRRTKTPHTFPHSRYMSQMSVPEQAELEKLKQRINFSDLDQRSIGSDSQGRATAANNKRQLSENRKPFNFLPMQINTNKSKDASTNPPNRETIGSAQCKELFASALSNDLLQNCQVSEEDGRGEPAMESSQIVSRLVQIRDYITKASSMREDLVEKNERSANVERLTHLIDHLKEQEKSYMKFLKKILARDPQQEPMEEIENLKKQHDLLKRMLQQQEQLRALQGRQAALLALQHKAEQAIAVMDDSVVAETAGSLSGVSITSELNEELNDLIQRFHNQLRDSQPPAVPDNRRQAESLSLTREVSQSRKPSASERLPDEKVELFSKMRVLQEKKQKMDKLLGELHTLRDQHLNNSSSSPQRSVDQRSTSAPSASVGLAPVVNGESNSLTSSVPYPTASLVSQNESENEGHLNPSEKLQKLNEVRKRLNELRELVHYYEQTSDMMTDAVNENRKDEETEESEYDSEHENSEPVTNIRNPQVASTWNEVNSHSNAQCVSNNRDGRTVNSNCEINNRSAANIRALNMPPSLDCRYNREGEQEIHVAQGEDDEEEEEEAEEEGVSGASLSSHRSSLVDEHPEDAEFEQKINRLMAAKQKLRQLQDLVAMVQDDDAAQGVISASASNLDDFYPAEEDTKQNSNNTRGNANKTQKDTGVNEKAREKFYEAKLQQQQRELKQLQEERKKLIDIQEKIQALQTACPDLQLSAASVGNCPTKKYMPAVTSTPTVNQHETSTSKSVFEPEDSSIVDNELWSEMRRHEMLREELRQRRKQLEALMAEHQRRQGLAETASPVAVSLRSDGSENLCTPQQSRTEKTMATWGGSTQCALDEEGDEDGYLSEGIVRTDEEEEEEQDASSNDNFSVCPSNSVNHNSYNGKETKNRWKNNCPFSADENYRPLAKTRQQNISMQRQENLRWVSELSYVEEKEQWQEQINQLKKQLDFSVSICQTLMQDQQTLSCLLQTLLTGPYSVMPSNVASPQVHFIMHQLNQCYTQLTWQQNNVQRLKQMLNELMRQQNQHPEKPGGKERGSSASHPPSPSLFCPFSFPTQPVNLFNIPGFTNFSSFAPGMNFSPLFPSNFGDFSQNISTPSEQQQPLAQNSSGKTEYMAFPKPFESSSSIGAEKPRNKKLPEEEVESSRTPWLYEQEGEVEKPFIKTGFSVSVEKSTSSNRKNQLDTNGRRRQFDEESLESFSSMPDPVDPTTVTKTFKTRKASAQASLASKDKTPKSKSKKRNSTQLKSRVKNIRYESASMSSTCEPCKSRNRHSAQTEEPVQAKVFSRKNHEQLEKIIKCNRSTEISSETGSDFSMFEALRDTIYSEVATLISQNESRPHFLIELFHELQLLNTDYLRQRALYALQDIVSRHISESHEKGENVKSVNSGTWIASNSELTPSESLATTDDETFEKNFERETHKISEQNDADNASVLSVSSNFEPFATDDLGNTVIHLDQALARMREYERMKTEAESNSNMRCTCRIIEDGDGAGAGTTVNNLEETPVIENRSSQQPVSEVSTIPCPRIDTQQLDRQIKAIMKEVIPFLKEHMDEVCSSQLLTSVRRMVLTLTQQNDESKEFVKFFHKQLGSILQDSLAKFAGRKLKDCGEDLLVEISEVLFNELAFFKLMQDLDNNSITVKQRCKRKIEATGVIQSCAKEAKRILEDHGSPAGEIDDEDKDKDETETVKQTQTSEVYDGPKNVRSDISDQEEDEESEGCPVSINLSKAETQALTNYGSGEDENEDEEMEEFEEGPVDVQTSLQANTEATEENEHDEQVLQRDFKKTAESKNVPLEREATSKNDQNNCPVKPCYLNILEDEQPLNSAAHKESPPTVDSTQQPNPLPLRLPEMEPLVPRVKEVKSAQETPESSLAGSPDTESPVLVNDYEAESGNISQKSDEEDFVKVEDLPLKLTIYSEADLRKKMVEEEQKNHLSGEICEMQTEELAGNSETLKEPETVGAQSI

The target in experiment [1] is T1, OGT, exogenous (GFP‐OGT or HA‐OGT) (UniProt O15294).
T1 sequence: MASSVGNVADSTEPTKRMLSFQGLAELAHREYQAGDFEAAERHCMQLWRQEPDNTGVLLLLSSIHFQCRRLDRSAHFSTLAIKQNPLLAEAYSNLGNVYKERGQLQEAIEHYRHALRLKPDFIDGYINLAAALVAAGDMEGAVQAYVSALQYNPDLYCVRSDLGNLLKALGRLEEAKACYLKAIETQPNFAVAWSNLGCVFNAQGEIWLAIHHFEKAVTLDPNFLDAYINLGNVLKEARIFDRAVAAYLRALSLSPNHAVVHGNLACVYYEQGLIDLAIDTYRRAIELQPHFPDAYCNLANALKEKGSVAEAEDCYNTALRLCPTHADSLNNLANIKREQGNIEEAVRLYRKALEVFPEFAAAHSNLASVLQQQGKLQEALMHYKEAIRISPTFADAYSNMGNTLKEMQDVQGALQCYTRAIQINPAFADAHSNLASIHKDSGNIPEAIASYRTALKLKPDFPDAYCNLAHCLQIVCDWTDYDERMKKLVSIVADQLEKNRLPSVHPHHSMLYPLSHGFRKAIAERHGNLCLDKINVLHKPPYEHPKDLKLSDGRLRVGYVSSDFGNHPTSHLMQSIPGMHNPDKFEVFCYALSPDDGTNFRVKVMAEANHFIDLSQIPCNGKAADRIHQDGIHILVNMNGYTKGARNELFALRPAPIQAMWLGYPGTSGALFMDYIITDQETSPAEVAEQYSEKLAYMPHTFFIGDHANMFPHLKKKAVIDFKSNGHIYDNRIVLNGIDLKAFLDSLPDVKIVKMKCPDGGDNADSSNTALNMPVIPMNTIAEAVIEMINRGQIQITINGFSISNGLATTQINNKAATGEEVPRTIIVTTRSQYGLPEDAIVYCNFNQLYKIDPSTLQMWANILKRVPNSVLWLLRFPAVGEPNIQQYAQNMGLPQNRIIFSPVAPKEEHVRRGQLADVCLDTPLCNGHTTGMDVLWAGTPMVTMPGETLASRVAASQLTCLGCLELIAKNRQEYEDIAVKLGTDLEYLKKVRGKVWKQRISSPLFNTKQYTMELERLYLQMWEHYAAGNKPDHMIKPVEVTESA
As to the kind of experiment: co-IP; 293T cells transfected with the indicated plasmids; lysis in 20 mM Tris-HCl, 150 mM NaCl, 1 mM EDTA, 1 mM EGTA, 1% NP-40, 2.5 mM sodium pyrophosphate, 10% glycerol, pH 7.5; beads 4 °C 4 h, five washes, immunoblotting. Background: A western blot detects proteins with antibodies after separation by electrophoresis.

Experiment [2] addresses T2, O‐GlcNAc transferase (OGT), endogenous (human (endogenous in MCF10A)) (UniProt O15294).
T2 sequence: T1 sequence
As to the kind of experiment: co-IP; endogenous proteins; cells and precipitating antibody not stated; immunoprecipitation lysis buffer, Protein A/G beads with primary antibody, 4 °C 4 h.

For experiment [3], the target named is T1, OGT, exogenous (GFP‐OGT or HA‐OGT). In words: co-IP; 293T cells transfected with the indicated plasmids; lysis in 20 mM Tris-HCl, 150 mM NaCl, 1 mM EDTA, 1 mM EGTA, 1% NP-40, 2.5 mM sodium pyrophosphate, 10% glycerol, pH 7.5; beads 4 °C 4 h, five washes, immunoblotting. This is another data set of the same source.

Like-named read-outs stand apart in the source and are kept apart here. Results are given in words; binding and its absence hold for the method and conditions named. Binding seen in cells or lysates may run through a third protein. Some binding calls cover weakened binding; strength is not graded here. For part of these data: Sequences can lack the tags named with a protein.

As to “PCM1, exogenous (HA‐PCM1 or GFP‐PCM1) (from UniProt Q15154 1-2024)”, the binding result in experiment [1] was “binds”.

On to “pericentriolar material 1 (PCM1), endogenous (from UniProt Q15154 1-2024)”, for which the binding entry in experiment [2] was “binds”.

B1: CEP131, exogenous (Flag‐CEP131 or GFP‐CEP131) (protein, UniProt Q9UPN4 1-1083)
chain: MKGTRAIGSVPERSPAGVDLSLTGLPPPVSRRPGSAATTKPIVRSVSVVTGSEQKRKVLEATGPGGSQAINNLRRSNSTTQVSQPRSGSPRPTEPTDFLMLFEGSPSGKKRPASLSTAPSEKGATWNVLDDQPRGFTLPSNARSSSALDSPAGPRRKECTVALAPNFTANNRSNKGAVGNCVTTMVHNRYTPSERAPPLKSSNQTAPSLNNIIKAATCEGSESSGFGKLPKNVSSATHSARNNTGGSTGLPRRKEVTEEEAERFIHQVNQATVTIQRWYRHQVQRRGAGAARLEHLLQAKREEQRQRSGEGTLLDLHQQKEAARRKAREEKARQARRAAIQELQQKRALRAQKASTAERGPPENPRETRVPGMRQPAQELSPTPGGTAHQALKANNTGGGLPAAGPGDRCLPTSDSSPEPQQPPEDRTQDVLAQDAAGDNLEMMAPSRGSAKSRGPLEELLHTLQLLEKEPDVLPRPRTHHRGRYAWASEVTTEDDASSLTADNLEKFGKLSAFPEPPEDGTLLSEAKLQSIMSFLDEMEKSGQDQLDSQQEGWVPEAGPGPLELGSEVSTSVMRLKLEVEEKKQAMLLLQRALAQQRDLTARRVKETEKALSRQLQRQREHYEATIQRHLAFIDQLIEDKKVLSEKCEAVVAELKQEDQRCTERVAQAQAQHELEIKKLKELMSATEKARREKWISEKTKKIKEVTVRGLEPEIQKLIARHKQEVRRLKSLHEAELLQSDERASQRCLRQAEELREQLEREKEALGQQERERARQRFQQHLEQEQWALQQQRQRLYSEVAEERERLGQQAARQRAELEELRQQLEESSSALTRALRAEFEKGREEQERRHQMELNTLKQQLELERQAWEAGRTRKEEAWLLNREQELREEIRKGRDKEIELVIHRLEADMALAKEESEKAAESRIKRLRDKYEAELSELEQSERKLQERCSELKGQLGEAEGENLRLQGLVRQKERALEDAQAVNEQLSSERSNLAQVIRQEFEDRLAASEEETRQAKAELATLQARQQLELEEVHRRVKTALARKEEAVSSLRTQHEAAVKRADHLEELLEQHRRPTPSTK
With B1, the binding entry in experiment [3] is “binds”.
